{
  "source": "patent US20190343846A1",
  "about": "“PREPARATION OF SOLID CYCLODEXTRIN COMPLEXES FOR OPHTHALMIC ACTIVE PHARMACEUTICAL INGREDIENT DELIVERY” (OCULIS SA, priority 2016, published 2019)",
  "key": {"[1]": {"test": "Percentage of drug in solid complex and percentage of dissolved drug (centrifugation, HPLC of supernatant)", "type": "physicochemical", "details": "aqueous γ-cyclodextrin containing eye drops versus conventional compositions"}, "[2]": {"test": "Degradation kinetics of dexamethasone in eye drop formulation (first-order rate constants, Arrhenius)", "type": "physicochemical", "details": "in aqueous γ-cyclodextrin solution; Arrhenius equation"}},
  "note": "At least one structure is not confirmed: it was looked up by name or label, or the drawing left a doubt.",
  "data": [
    {"smiles": "C[C@@H]1C[C@H]2[C@@H]3CCC4=CC(=O)C=C[C@]4(C)[C@@]3(F)[C@@H](O)C[C@]2(C)[C@@]1(O)C(=O)CO", "note": "[dexamethasone]", "values": [
      {"measurement": "increase in the concentration of dissolved active pharmaceutical ingredient", "setting": "[1]", "value": "~30", "unit": "fold"},
      {"measurement": "Apparent activation energy (Ea) for dehydration of dexamethasone", "setting": "[2]", "value": 32.15, "unit": "kcal/mol"}
    ]}
  ]
}
